According to the supplement of paper PMC3334620:
In all, about 33,000 sequences were measured (“E-score (-0.5 to 0.5)”: median about -0.0059, highest 2% from about 0.26 on). This is one part of the list.

molecular target: T1, Cin5 (UniProt P40917); assay: PBM E-score (8-mer binding enrichment) (E-score (-0.5 to 0.5)); higher = stronger / more preferred TF binding; settings: protein concentration: 100 nM; construct: GST-full length
T1 sequence: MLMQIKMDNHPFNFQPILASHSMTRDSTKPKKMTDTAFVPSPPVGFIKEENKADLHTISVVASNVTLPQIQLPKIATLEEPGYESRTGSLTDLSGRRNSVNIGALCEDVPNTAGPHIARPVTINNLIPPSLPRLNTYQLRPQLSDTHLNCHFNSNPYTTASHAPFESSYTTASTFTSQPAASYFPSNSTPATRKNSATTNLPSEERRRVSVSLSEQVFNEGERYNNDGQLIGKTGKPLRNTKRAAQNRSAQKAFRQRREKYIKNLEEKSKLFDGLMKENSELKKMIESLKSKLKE
Procedure, shortened: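 Yeast transcription factors carrying a GST tag, as full-length proteins or DNA-binding domains, were produced by PURExpress in vitro transcription/translation. About 100-200 nM protein was applied to universal all-10-mer Agilent arrays, double-stranded by primer extension on fresh or once-stripped slides. Bound protein was detected with fluorescent anti-GST, and scans were normalised with masliner. The Universal PBM Analysis Suite gave each ungapped eight-base word, pooled with its reverse complement, an E-score, a modified Wilcoxon-Mann-Whitney statistic.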

Sequence | PBM E-score
ATCTCCGC | 0.0483
GGTATGTA | 0.0454
CCACTTGC | 0.0354
ACCCATCT | 0.058
CACACGTA | -0.0382
CCGTTGCG | -0.203
CGGAGGGA | -0.265
GAGAAACA | 0.161
GAGTGTGA | 0.113
GCAGCGGC | -0.244
AAAGCCGC | -0.126
CGGCCAAC | -0.153
ATCCCTAA | -0.19
ACCGTCCT | -0.165
AGGTAGTG | 0.0155
AAATTGGA | 0.202
ACCAGGTA | -0.219
AACGATTG | 0.112
CCTTGGAG | -0.14
ACGGTTAT | 0.0536
CAATGAGA | -0.0591
CGTGACCC | -0.149
AGTGGCCG | -0.132
CCCATCGC | 0.0166
GTTTCTTA | 0.0414

Sequence | PBM E-score
ATGTCGGA | 0.00634
GAATTACA | 0.0909
GCGGGAAA | 0.037
CTCTCGCC | -0.222
GGCTGAAA | 0.0499
AGATCGAA | 0.229
TCTAGAGA | -0.228
CGTATTAG | 0.109
ATTCATCC | 0.127
AAAAGGTT | -0.0538
AGATAGTC | -0.0838
CCATAATA | 0.226
CCCTGAGG | -0.206
CAGTGATC | -0.0415
GCCATCGC | -0.165
ATGAGGAC | -0.096
CGTTTGCC | 0.059
AGATAATG | 0.177
CACGCCGG | -0.0549
TGAAAAAA | 0.2
ATTATTAA | 0.316
ACAATCGA | 0.0876
ACGCGCGG | 0.0983
CTCATAGA | 0.0152
ACAAAGTG | 0.119

Sequence | PBM E-score
TATACTGA | 0.274
TGATTCAA | 0.0483
CACATGGA | -0.136
ATGAATAC | 0.142
TCGCCCAA | -0.172
CAACCGGG | -0.265
TGTGATAA | 0.194
AAGTGCAA | 0.0974
TCCTAAGA | -0.0986
ATATGATG | 0.158
GTTGTAAA | -0.0984
AGGGCAGC | -0.156
AAACATGG | 0.0681
ATGCACAA | 0.141
ACCAGCGC | -0.0758
GCTTGATA | 0.0834
GAATAAAA | 0.0288
AGTCACCC | 0.0121
CGTCGGTA | -0.223
ATATCGGG | 0.0675
TCAAATGA | -0.0692
AATGAAGT | 0.249
AACGGGAA | 0.081
GCATACAA | 0.215
GCATCCCC | -0.195

At a glance, part of the list above:
Sequence | PBM E-score
TATACTGA | 0.274
TGATTCAA | 0.0483

(continued)

Sequence | PBM E-score
ACGTGTAG | -0.127
ACCACGTG | -0.0212
GGACTCTA | -0.0904
ACGGCGAG | -0.0102
ACTCTAAA | 0.126
CTGAAGTC | -0.0994
CATAATCG | 0.324
ATTAAGTC | 0.16
AAGAGGTG | 0.12
CTACCGCA | -0.122
AGGTATTA | 0.209
ACTACTAG | 0.158
AGCGCGCT | 0.0943
GCTTGCCA | -0.131
TCGGCGAA | -0.0521
AGGTGAGG | -0.0461
CCCGGCAA | -0.0879
GCCCTGCC | -0.0826
AGAAGTCC | -0.278
CTGAACGC | -0.113
CAATACGC | 0.0195
CCGGCCGG | 0.111
GGTGACAA | 0.144
GCATCACC | -0.0704
TTCCTAAA | -0.157

Sequence | PBM E-score
CACGTCAA | -0.236
AATTGGTC | 0.16
AGATCTAT | -0.126
ATATCCAT | 0.137
AGCGTGAC | -0.0875
CAGGAACC | -0.184
CTCTTCCC | -0.177
AGGAGGAA | -0.233
ACCCAAGT | 0.0713
AACGATCG | 0.0832
AACTAGTC | 0.107
ATACTGGG | -0.0146
AAGCTTGG | -0.128
ACGCCATG | -0.108
CGCTGGTA | -0.185
AACCACCT | 0.157
GCCAGGCA | -0.111
GTATGATA | 0.275
CACCCTTA | 0.00872
ACGTCAAA | 0.0848
AATATTAA | 0.304
AGCCTAAT | -0.0343
ATATATGA | 0.213
AACAACGC | 0.042
CGGTCCAG | -0.318

Sequence | PBM E-score
CTTTCGTA | -0.00286
ACGCTAGG | -0.227
GACGTACC | -0.0136
AGCTCTTG | -0.0812
ATTAAAGG | 0.121
ACGGCGGC | -0.0817
AGTGCTGA | 0.0175
ACGAACCG | -0.00289
CCCTTACC | -0.182
GAAACTTC | -0.00897
ATCCGTCC | 0.0049
CGGGTACC | -0.131
ATTTCCAC | 0.188
GGAACGTA | 0.00228
CGCGGAAG | 0.0415
GCATTGCC | -0.219
ACCGGTGC | -0.171
AATAGTTC | 0.0923
AATAACTC | 0.238
CCGCTAAA | -0.0853
CCCAGCCC | -0.156
AAGTATCG | -0.0386
GGATCCAA | 0.104
TACGCGAA | 0.0591
CATGATGA | 0.173

Sequence | PBM E-score
AGGCTAGG | -0.221
AAGGCGGT | -0.0593
CGATCATC | -0.00224
TTGCACAA | 0.0773
AGCATGTG | 0.042
CAACAGGC | -0.129
AATCCAGT | 0.199
CCTTAGGA | 0.0118
TATTTCAA | 0.193
AGGTCTTG | -0.202
AAGGGGGA | -0.396
ATTGTATA | 0.222
TGGCAACA | 0.0384
CGGAGGAA | -0.277
AAAGTTGC | 0.0362
TACCGTCA | -0.0436
TAGCTCAA | -0.135
TGAGCGCA | -0.0761
CGCCCAGA | -0.17
AGGGCCCC | -0.322
AGGGGTCC | -0.268
ACCGTTTG | -0.119

Another view of part of the listing above.
Sequence	PBM E-score
CGGGTACC	-0.131
ATTTCCAC	0.188
GGAACGTA	0.00228
CGCGGAAG	0.0415
GCATTGCC	-0.219
ACCGGTGC	-0.171
AATAGTTC	0.0923
AATAACTC	0.238
CCGCTAAA	-0.0853
CCCAGCCC	-0.156
AAGTATCG	-0.0386
GGATCCAA	0.104
CATGATGA	0.173
AGGCTAGG	-0.221
AAGGCGGT	-0.0593
CGATCATC	-0.00224
TTGCACAA	0.0773
AGCATGTG	0.042
CAACAGGC	-0.129
AATCCAGT	0.199
CCTTAGGA	0.0118
TATTTCAA	0.193
AGGTCTTG	-0.202
ATTGTATA	0.222
TGGCAACA	0.0384
CGGAGGAA	-0.277
AAAGTTGC	0.0362
TACCGTCA	-0.0436
TAGCTCAA	-0.135
TGAGCGCA	-0.0761
CGCCCAGA	-0.17
AGGGGTCC	-0.268
ACCGTTTG	-0.119
